{"source": "PubChem BioAssay AID686938 | Drosophila RNAi Screening Center | 2013", "screen": "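Knock-downs reducing store-operated calcium influx in Drosophila cells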 (primary screen)", "cells": "Drosophila S2R+ cells", "reagents": "long dsRNA against Drosophila genes, about 0.25 µg dsRNA per well, roughly 10,000 cells", "timing": "5 days of knock-down before the calcium assay", "conditions": "thapsigargin (SERCA pump blocker) to empty calcium stores; entry signal taken 4 min after adding it", "read-out": "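Per-well fluo-4 fluorescence in two replicates, unnormalised, measured in resting cells and 4 min after store depletion by the SERCA blocker thapsigargin; ratio of the two present in few wells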", "direction": "calcium entry signal: higher = stronger calcium signal after store depletion; entry to resting ratio: higher = more calcium entry relative to resting level; resting calcium signal: higher = higher resting calcium signal", "units": "calcium entry signal in fluorescence units; resting calcium signal in fluorescence units", "call rule": "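Called when the plate z-score of the entry-to-rest ratio, mean of duplicates, falls below −3; wells with low overall dye signal (Fmax z below −2) or more than five off-targets excluded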", "calls": "active = strongly reduced calcium entry; inactive = no strong reduction", "note": "The screen tested about 23,000 reagents; shown is a random part of those with a known target gene and a result. Over the whole deposit, 75 (0.33%) got an active call. 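Raw plate signals without normalisation; calls rest on plate z-scores that were not deposited; ratio present for only 364 wells.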 Unmarked entries are inactive. No sequences are given here. Not stated in the record: the dose of the treatment."}
{"Gene": "CG32793", "amplicon": "DRSC18145", "calcium entry signal, replicate 1": 4.43e7, "calcium entry signal, replicate 2": 5.63e7, "entry to resting ratio": 2.1, "resting calcium signal, replicate 1": 2.13e7, "resting calcium signal, replicate 2": 2.27e7}
{"Gene": "CG32793", "amplicon": "DRSC18194", "calcium entry signal, replicate 1": 3.86e7, "calcium entry signal, replicate 2": 6.18e7, "entry to resting ratio": 2.2, "resting calcium signal, replicate 1": 1.77e7, "resting calcium signal, replicate 2": 2.30e7}
{"Gene": "Xpd", "amplicon": "DRSC04666", "calcium entry signal, replicate 1": 3.57e7, "resting calcium signal, replicate 1": 1.96e7}
{"Gene": "CG31103", "amplicon": "DRSC22324", "calcium entry signal, replicate 1": 3.45e7, "calcium entry signal, replicate 2": 4.77e7, "resting calcium signal, replicate 1": 1.61e7, "resting calcium signal, replicate 2": 2.75e7}
{"Gene": "CG13086", "amplicon": "DRSC02190", "calcium entry signal, replicate 1": 6.29e7, "calcium entry signal, replicate 2": 5.07e7, "resting calcium signal, replicate 1": 3.19e7, "resting calcium signal, replicate 2": 1.98e7}
{"Gene": "CG3760", "amplicon": "DRSC04415", "calcium entry signal, replicate 1": 5.42e7, "calcium entry signal, replicate 2": 2.78e7, "resting calcium signal, replicate 1": 2.48e7, "resting calcium signal, replicate 2": 1.43e7}
{"Gene": "CG1698", "amplicon": "DRSC06640", "calcium entry signal, replicate 1": 3.27e7, "calcium entry signal, replicate 2": 2.77e7, "resting calcium signal, replicate 1": 1.47e7, "resting calcium signal, replicate 2": 1.34e7}
{"Gene": "Ref2", "amplicon": "DRSC02563", "calcium entry signal, replicate 1": 4.40e7, "calcium entry signal, replicate 2": 3.04e7, "resting calcium signal, replicate 1": 1.98e7, "resting calcium signal, replicate 2": 1.50e7}
{"Gene": "CG1902", "amplicon": "DRSC06798", "calcium entry signal, replicate 1": 3.09e7, "calcium entry signal, replicate 2": 2.97e7, "resting calcium signal, replicate 1": 1.41e7, "resting calcium signal, replicate 2": 1.45e7}
{"Gene": "ninaB", "amplicon": "DRSC16807", "calcium entry signal, replicate 1": 2.96e7, "calcium entry signal, replicate 2": 4.78e7, "resting calcium signal, replicate 1": 1.45e7, "resting calcium signal, replicate 2": 6.33e7}
{"Gene": "CG9993", "amplicon": "DRSC04599", "calcium entry signal, replicate 1": 5.37e7, "calcium entry signal, replicate 2": 4.29e7, "resting calcium signal, replicate 1": 2.53e7, "resting calcium signal, replicate 2": 2.02e7}
{"Gene": "CG32081", "amplicon": "DRSC09861", "calcium entry signal, replicate 1": 2.12e7, "calcium entry signal, replicate 2": 3.48e7, "resting calcium signal, replicate 1": 1.06e7, "resting calcium signal, replicate 2": 1.35e7}
{"Gene": "t-Grip84", "amplicon": "DRSC10904", "calcium entry signal, replicate 1": 3.17e7, "calcium entry signal, replicate 2": 5.09e7, "resting calcium signal, replicate 1": 1.51e7, "resting calcium signal, replicate 2": 2.09e7}
{"Gene": "MFS1", "amplicon": "DRSC04115", "calcium entry signal, replicate 1": 3.95e7, "calcium entry signal, replicate 2": 4.31e7, "resting calcium signal, replicate 1": 2.02e7, "resting calcium signal, replicate 2": 1.93e7}
{"Gene": "CG33252", "amplicon": "DRSC19162", "calcium entry signal, replicate 1": 3.47e7, "calcium entry signal, replicate 2": 3.41e7, "resting calcium signal, replicate 1": 1.73e7, "resting calcium signal, replicate 2": 1.60e7}
{"Gene": "CG32945", "amplicon": "DRSC12014", "calcium entry signal, replicate 1": 3.92e7, "calcium entry signal, replicate 2": 3.32e7, "resting calcium signal, replicate 1": 2.15e7, "resting calcium signal, replicate 2": 1.65e7}
{"Gene": "upd2", "amplicon": "DRSC19969", "calcium entry signal, replicate 1": 4.59e7, "calcium entry signal, replicate 2": 3.42e7, "resting calcium signal, replicate 1": 2.08e7, "resting calcium signal, replicate 2": 1.84e7}
{"Gene": "CG14968", "amplicon": "DRSC08427", "calcium entry signal, replicate 1": 2.11e7, "calcium entry signal, replicate 2": 2.66e7, "resting calcium signal, replicate 1": 1.10e7, "resting calcium signal, replicate 2": 1.21e7}
{"Gene": "CG12439", "amplicon": "DRSC02168", "calcium entry signal, replicate 1": 2.79e7, "calcium entry signal, replicate 2": 3.48e7, "resting calcium signal, replicate 1": 1.35e7, "resting calcium signal, replicate 2": 1.58e7}
{"Gene": "CG2983", "amplicon": "DRSC00558", "calcium entry signal, replicate 1": 3.29e7, "calcium entry signal, replicate 2": 3.88e7, "resting calcium signal, replicate 1": 1.55e7, "resting calcium signal, replicate 2": 1.69e7}
{"Gene": "CG3224", "amplicon": "DRSC18295", "calcium entry signal, replicate 1": 2.58e7, "calcium entry signal, replicate 2": 3.03e7, "resting calcium signal, replicate 1": 1.40e7, "resting calcium signal, replicate 2": 1.63e7}

Only “resting calcium signal, replicate 2”, for 2 of the entries above:
CG1698 [DRSC06640]	1.34e7
Ref2 [DRSC02563]	1.50e7
